Patent publication US20260217768A1, “NANOPARTICLE-NHE3 PEPTIDE TO TREAT DIARRHEA” (The Johns Hopkins University, priority 2023, published 2026)

System: mouse jejunum
Conditions: in vivo

Substance | localization of peptide in CTx-treated jejunum
CP-1: 21 aa control peptide representing aa 585-605 of rabbit NHE3 (YLLRESASAVCLDMQSLEQRR; UniProt P26432 585-605, looked up, fragment) | remained at the BB
NHE3 mimetic peptide, rabbit NHE3 aa 568-605: NVDFSTPRPSTVEASVSYLLRESASAVCLDMQSLEQRR [Peptide N3SP-1] | visible intracellular accumulation
